Data from article PMC9883236.
No constants are given. Whether binding was seen depends on the method and setting. Binding seen in cells or lysates may run through a third protein. Some binding calls cover weakened binding; strength is not graded here. For some of these results: Sequences can lack the tags named with a protein.

Amino acid sequences for entries named in this document (tags omitted).
UniProt Q86WV6: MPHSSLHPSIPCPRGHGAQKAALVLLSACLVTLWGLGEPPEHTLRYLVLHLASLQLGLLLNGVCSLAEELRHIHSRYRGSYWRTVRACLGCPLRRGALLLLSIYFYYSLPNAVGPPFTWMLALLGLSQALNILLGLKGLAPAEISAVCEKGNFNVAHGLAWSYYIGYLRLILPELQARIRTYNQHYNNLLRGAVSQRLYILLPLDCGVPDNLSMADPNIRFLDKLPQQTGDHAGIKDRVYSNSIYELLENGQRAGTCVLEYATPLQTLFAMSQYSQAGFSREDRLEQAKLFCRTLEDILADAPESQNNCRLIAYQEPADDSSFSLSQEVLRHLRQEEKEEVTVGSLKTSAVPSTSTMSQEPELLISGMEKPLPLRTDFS

T1: STING, endogenous in mouse macrophages (mouse (endogenous in peritoneal macrophages and BMDMs)) (UniProt Q3TBT3)
T1 sequence: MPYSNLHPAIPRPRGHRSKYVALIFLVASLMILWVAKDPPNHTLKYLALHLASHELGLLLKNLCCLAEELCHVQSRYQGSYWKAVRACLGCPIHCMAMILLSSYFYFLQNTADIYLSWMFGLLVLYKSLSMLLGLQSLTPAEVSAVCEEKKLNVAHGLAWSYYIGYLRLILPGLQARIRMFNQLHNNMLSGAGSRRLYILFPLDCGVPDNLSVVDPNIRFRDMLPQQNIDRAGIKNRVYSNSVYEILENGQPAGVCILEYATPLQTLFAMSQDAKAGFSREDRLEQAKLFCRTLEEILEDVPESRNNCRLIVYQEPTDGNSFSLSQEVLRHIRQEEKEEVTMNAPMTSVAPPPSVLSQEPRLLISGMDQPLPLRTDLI


Assays:
[1] = biological target: T1, STING, endogenous in mouse macrophages (mouse (endogenous in peritoneal macrophages and BMDMs)); assay: co-IP; endogenous proteins in mouse PMs and BMDMs, unstimulated or infected with HSV-1 for the indicated times; immunoprecipitation, immunoblot
[2] = biological target: STING-Myc (UniProt Q86WV6); assay: co-IP; 293T cells cotransfected with TRIM29, RNF5 or TRIM30a and STING with varying doses of UFL1; co-immunoprecipitation, immunoblot

Binder | binding [1] | binding [2]
TRIM29, endogenous in mouse BMDMs (enzyme, UniProt Q8R2Q0 1-587) MEGADACRSNGASPEARDTRSPPGPSGSLENGTKADSKDTKTTNGHSGEVTEGKTLGSALKSGEGKSGLFSSNEWRRPIIQFVESVDDKGSSYFSMDSAEGRRSPYAGLQLGASKKPPVTFAEKGELRKSIFSEPRKPTVTIVEPGEVRRNSYPRADSSLLARAKSGSEEVLCDSCIGNKQKAVKSCLVCQASFCELHLKPHLEGAAFRDHQLLEPIRDFEARKCPLHGKTMELFCQTDQTCICYLCMFQEHKNHSTVTVEEAKAEKETELSLQKEQLQLKIIEIEDDVEKWQKEKDRIKSFTTNEKAILEQNFRDLVRELEKQKEEVRAALEQREQDAVDQVKVIVDALDERAKVLHEDKQTREQLHNISDSVLFLQEFGALMSNYSLPPPLPTYHVLLEGEGLGQSLGNCKDDLLNVCMRHVEKMCKADLSRNFIERNHMENGGDHRYMNSYTSSYGNEWSTPDTMKRYSMYLTPKGGGRTSYQPSSPSRLSKETNQKNFNNLYGTKGNYTSRVWEYTSTVQNSEDMPTVQGNSSFSLKGFPSLLRSQVPKAQPQTWKSGKQTLLSHYRPFYVNKGSGIGSNEAP | binds | –
UFL1, endogenous in mouse macrophages (enzyme, UniProt Q8CCJ3 1-793) MADAWEEIRRLAADFQRAQFAESTQRLSERNCIEIVNKLISQKQLEVVHTLDGKEYITPAQISKEMRDELHVRGGRVNIVDLQQVINVDLTHIESRVSDIIKSEKHVQMVLGQLIDENYLDQLSEEVNDKLQESGQVTVSELCKAYDLPGDFLTQALTQRLGRIINGHLDLDNRGVIFTEAFVARHKARIRGLFSAITRPTPVNSLVSKYGFQEQLLYSVLEDLVSTGRLRGTVVGGRQDKAVFVPDIYSRTQSTWVDSFFRQNGYLEFDALSRLGIPDAVNYIKKRYKNTQLLFLKATCVGQGLVDQVEASVEEAISSGTWVDISPLLPSSLSVEDAAMLLQQVMRPFGKLASAIVFSDTVVVSEKFITDCTGLFSERMHQKAEKEMKNNPVHLITEEDLKQISILESVNTSKKDKKDERRKKATEGSGSVRGGGGGNAREYKIKKTKKKGRKDEDSDDESQSSHGGKKKPDITFMFQDEIEDCLRKHIQDAPEEFISELAEYLIKPLNKMYLEVVRSVFMSSTSASGTGRKRTIKDLQEEVSNLYNNIRLFEKGMKYFADDTQTALTKHLLKTVCTDITNLMFNFLASDFLMAVEEPAAITSDIRKKILSKLTEETKVALTKLHNSLNEKSIEDFLSCLDSATEACDIMVKKGDKKRERQILFQHRQALCEQLKVTEDPALILHLTAVLLFQLSTHSMLHAPGRCVPQIIAFLHSKIPEDQHTLLVKYQGLVVKQLVSQNKKTGQGEDPSSDELDKEQHDVTNATRKELQELSLSIKDLVLKSRKSSVTEE | binds | –
TRIM30a (tripartite motif protein 30a) (enzyme, UniProt P15533 1-496) MASSVLEMIKEEVTCPICLELLKEPVSADCNHSFCRACITLNYESNRNTDGKGNCPVCRVPYPFGNLRPNLHVANIVERLKGFKSIPEEEQKVNICAQHGEKLRLFCRKDMMVICWLCERSQEHRGHQTALIEEVDQEYKEKLQGALWKLMKKAKICDEWQDDLQLQRVDWENQIQINVENVQRQFKGLRDLLDSKENEELQKLKKEKKEVMEKLEESENELEDQTELVRDLISDVEHHLELSTLEMLQGANCVLRRSQSLSLQQPQTVPQKRKRTFQAPDLKGMLQVYQGLMDIQQYWVHMTLHARNNAVIAINKEKRQIQYRSYNTVPVSEIYHLGVLGYPALSSGKHYWEVDISRSDAWLLGLNDGKCAQPQLHSKEEMGIKKNLHSQIKQNVLFQPKCGYWVIGMKNPSVYKAFDECSITHNSSILVISLPDRPSRVGVFLDRKAGTLSFYDVSNCGALIYRFYDPAFPVEVYPYFNPMKCSEPMTICGPPS | – | binds
TRIM29-Flag (tripartite motif protein 29) (enzyme, UniProt Q14134 1-588) MEAADASRSNGSSPEARDARSPSGPSGSLENGTKADGKDAKTTNGHGGEAAEGKSLGSALKPGEGRSALFAGNEWRRPIIQFVESGDDKNSNYFSMDSMEGKRSPYAGLQLGAAKKPPVTFAEKGELRKSIFSESRKPTVSIMEPGETRRNSYPRADTGLFSRSKSGSEEVLCDSCIGNKQKAVKSCLVCQASFCELHLKPHLEGAAFRDHQLLEPIRDFEARKCPVHGKTMELFCQTDQTCICYLCMFQEHKNHSTVTVEEAKAEKETELSLQKEQLQLKIIEIEDEAEKWQKEKDRIKSFTTNEKAILEQNFRDLVRDLEKQKEEVRAALEQREQDAVDQVKVIMDALDERAKVLHEDKQTREQLHSISDSVLFLQEFGALMSNYSLPPPLPTYHVLLEGEGLGQSLGNFKDDLLNVCMRHVEKMCKADLSRNFIERNHMENGGDHRYVNNYTNSFGGEWSAPDTMKRYSMYLTPKGGVRTSYQPSSPGRFTKETTQKNFNNLYGTKGNYTSRVWEYSSSIQNSDNDLPVVQGSSSFSLKGYPSLMRSQSPKAQPQTWKSGKQTMLSHYRPFYVNKGNGIGSNEAP | – | binds
